Reference: article PMC5686148
No constants are given. Whether binding was seen depends on the method and setting. Binding seen in cells or lysates may run through a third protein. Some binding calls cover weakened binding; strength is not graded here. Each block holds one substance with its values, some of them ahead of it.

The chains behind the UniProt entries cited, without tags or fusion partners.
UniProt P11413: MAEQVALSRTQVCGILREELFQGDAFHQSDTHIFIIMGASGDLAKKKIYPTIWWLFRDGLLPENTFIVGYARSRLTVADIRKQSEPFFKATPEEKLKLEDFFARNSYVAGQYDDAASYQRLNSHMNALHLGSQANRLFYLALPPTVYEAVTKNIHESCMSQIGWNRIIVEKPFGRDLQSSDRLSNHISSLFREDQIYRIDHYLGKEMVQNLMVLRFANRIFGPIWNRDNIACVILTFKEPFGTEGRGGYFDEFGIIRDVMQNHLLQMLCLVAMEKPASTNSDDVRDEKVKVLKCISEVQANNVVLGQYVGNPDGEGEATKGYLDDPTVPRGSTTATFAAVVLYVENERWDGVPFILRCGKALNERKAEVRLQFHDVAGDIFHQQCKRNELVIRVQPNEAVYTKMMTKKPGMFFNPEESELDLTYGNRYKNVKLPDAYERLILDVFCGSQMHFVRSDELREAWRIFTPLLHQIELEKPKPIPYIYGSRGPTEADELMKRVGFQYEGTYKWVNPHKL
UniProt P53350: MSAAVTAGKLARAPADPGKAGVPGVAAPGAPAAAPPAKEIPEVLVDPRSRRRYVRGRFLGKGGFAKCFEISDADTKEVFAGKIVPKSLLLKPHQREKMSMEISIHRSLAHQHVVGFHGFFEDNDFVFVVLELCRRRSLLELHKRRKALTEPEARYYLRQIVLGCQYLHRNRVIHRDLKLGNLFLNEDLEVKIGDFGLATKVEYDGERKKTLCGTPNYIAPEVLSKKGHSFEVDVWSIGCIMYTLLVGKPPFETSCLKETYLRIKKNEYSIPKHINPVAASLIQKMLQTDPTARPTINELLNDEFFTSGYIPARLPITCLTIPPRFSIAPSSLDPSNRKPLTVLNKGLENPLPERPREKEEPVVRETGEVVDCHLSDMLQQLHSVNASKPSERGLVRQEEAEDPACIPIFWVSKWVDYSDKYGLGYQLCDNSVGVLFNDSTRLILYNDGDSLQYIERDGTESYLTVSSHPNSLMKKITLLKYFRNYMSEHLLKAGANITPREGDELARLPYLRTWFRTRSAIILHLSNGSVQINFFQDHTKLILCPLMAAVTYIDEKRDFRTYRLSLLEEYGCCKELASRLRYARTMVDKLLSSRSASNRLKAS

Experiments:
[1] = target: G6PD wild type overexpressed in HeLa cells stably expressing shG6PD (UniProt P11413); test: cross-linking; 1 mM disuccinimidyl suberate (DSS) on HeLa cells in 20 mM HEPES pH 8.0, 37 °C, 30 min, western blot with anti-G6PD; cells with Plk1 overexpression, tet-inducible shPlk1, synchronised, or with 1 μM BI2536; also Hep3B cells
Flag-G6PD wild type [2] = target: Flag-G6PD wild type (UniProt P11413); test: co-IP; 293T cells transfected (for Fig. 5g NTC- or shPlk1-expressing 293T); lysates (20 mM HEPES pH 7.5, 150 mM NaCl, 2 mM EDTA, 1.5 mM MgCl2, 1% NP40) immunoprecipitated with anti-Flag antibody or IgG at 4 °C, western blot
Flag-G6PD wild type [3] = target: Flag-G6PD wild type (UniProt P11413); test: co-IP; HeLa cells transfected with eGFP-G6PD and Flag-G6PD; lysates immunoprecipitated with anti-Flag antibody, western blot; with pSin-Plk1 co-transfection, BI2536 for 16 h, or nocodazole
[4] = target: Flag-Plk1 (Polo-like kinase 1) (UniProt P53350); test: co-IP; 293T cells transfected (for Fig. 5g NTC- or shPlk1-expressing 293T); lysates (20 mM HEPES pH 7.5, 150 mM NaCl, 2 mM EDTA, 1.5 mM MgCl2, 1% NP40) immunoprecipitated with anti-Flag antibody or IgG at 4 °C, western blot
[5] = target: endogenous G6PD (human (endogenous in HeLa)) (UniProt P11413); test: co-IP; endogenous proteins, HeLa lysate, immunoprecipitation with anti-Plk1 or anti-G6PD, western blot; in Fig. 4b lysate treated with or without PP2A phosphatase before IP with anti-Plk1

binding [1]: binds
Substance: G6PD wild type overexpressed in HeLa cells stably expressing shG6PD (from UniProt P11413 1-515) (enzyme)

binding (Flag-G6PD wild type [2]): binds
Substance: Plk1 expressed from pSin-Plk1 (from UniProt P53350 1-603) (enzyme)

binding (Flag-G6PD wild type [3]): binds
binding [4]: binds
binding (Flag-G6PD wild type [2]): binds
Substance: eGFP-G6PD (glucose-6-phosphate dehydrogenase) (from UniProt P11413 1-515) (enzyme)

binding [5]: binds
Substance: endogenous Plk1 (from UniProt P53350 1-603) (enzyme)
